Laboratory results from PubChem BioAssay AID192 (DTP/NCI, 2004).
The list does not hold the whole screen: it gathers tests that were run many times, whatever their T/C, doses with no T/C, and many T/C values between a quarter and a half above the control. Further doses and runs are listed elsewhere. T/C: endpoint of the treated group in % of that of the vehicle group. Some entries give survivors of the animals treated and no T/C: the source files T/C as zero there, which appears to mark a toxic dose or a test without result, not a measured value. Some doses without a T/C left all or most animals alive at the check, yet need not have been tolerated: the source hardly ever lists a survival T/C far under the control, and the zero likely stands for such cases as well. Survivors were counted at the toxicity check, usually on the fifth day, unless a day is given; later deaths do not show. Schedules are NCI's codes, read here as Q, the interval in days (D) or hours (H), X, the number of doses. Some doses were run more than once; the results are listed from low to high. For survival time, this PubChem deposit counts one and a half times the control or more as active, and values a quarter to a half above the control carry no call in these data; other NCI protocols may use other cut-offs. Some T/C values are followed by the survivors on the day toxicity was checked, most often the fifth; without a count, all were alive then. Marks such as (2×) count equal records among those shown.

Test system: BDF1 mice, B16 melanoma ip, median survival T/C
Experiment: NCI In Vivo Anticancer Drug Screen. Data for tumor model B16 Melanoma (intraperitoneal) in B6D2F1 (BDF1) mice
Settings: T/C endpoint: median survival time, higher T/C = longer survival
Protocol: The antitumor activity of compounds was measured in mice bearing transplantable tumors. Survival or tumor size were measured and the results are expressed as the measurement made in the treated group (T) divided by the measurement made in the vehicle treated control group (C). The tumor model used in this assay is B16 Melanoma (intraperitoneal) in B6D2F1 (BDF1) mice

[1] = dose: 100.0 mg/kg/injection, schedule: Q01DX009 (ip), vehicle: saline
[2] = dose: 200.0 mg/kg/injection, schedule: Q01DX009 (ip), vehicle: Klucel (hydroxypropylcellulose) (HPC)
[3] = dose: 400.0 mg/kg/injection, schedule: Q01DX009 (ip), vehicle: Klucel (hydroxypropylcellulose) (HPC)
[4] = dose: 100.0 mg/kg/injection, schedule: Q04DX003 (ip), vehicle: Klucel (hydroxypropylcellulose) (HPC)
[5] = dose: 200.0 mg/kg/injection, schedule: Q04DX003 (ip), vehicle: Klucel (hydroxypropylcellulose) (HPC)
[6] = dose: 400.0 mg/kg/injection, schedule: Q04DX003 (ip), vehicle: Klucel (hydroxypropylcellulose) (HPC)
[7] = dose: 100.0 mg/kg/injection, schedule: Q01DX009 (ip), vehicle: Klucel (hydroxypropylcellulose) (HPC)
[8] = dose: 200.0 mg/kg/injection, schedule: Q01DX009 (ip), vehicle: saline with Tween-80
[9] = dose: 50.0 mg/kg/injection, schedule: Q01DX009 (ip), vehicle: Klucel (hydroxypropylcellulose) (HPC)
[10] = dose: 6.25 mg/kg/injection, schedule: Q01DX009 (ip), vehicle: saline with Tween-80
[11] = dose: 12.5 mg/kg/injection, schedule: Q01DX009 (ip), vehicle: saline with Tween-80
[12] = dose: 25.0 mg/kg/injection, schedule: Q01DX009 (ip), vehicle: saline with Tween-80
[13] = dose: 50.0 mg/kg/injection, schedule: Q01DX009 (ip), vehicle: saline with Tween-80

In the case of `CN(N=O)C(=O)N[C@@H](C=O)[C@@H](O)[C@H](O)[C@H](O)CO`, the T/C (dose: 12.5 mg/kg/injection, schedule: Q01DX009 (ip), vehicle: saline) is reported as 100, 105, 107, 108, 111 (2×), 129 % of control, the T/C (dose: 25.0 mg/kg/injection, schedule: Q01DX009 (ip), vehicle: saline sonified) is reported as 129 % of control and the T/C (dose: 25.0 mg/kg/injection, schedule: Q01DX009 (ip), vehicle: saline) is reported as 95, 107, 113, 121, 123, 130, 142 % of control. For the same molecule, the T/C (dose: 33.3 mg/kg/injection, schedule: Q01DX009 (ip), vehicle: other) was 127 % of control, the T/C (dose: 50.0 mg/kg/injection, schedule: Q01DX009 (ip), vehicle: other) was 131 (2×), 134, 135 % of control [9 of 10 alive] and the T/C (dose: 50.0 mg/kg/injection, schedule: Q01DX009 (ip), vehicle: saline sonified) was 129 % of control. The T/C (dose: 50.0 mg/kg/injection, schedule: Q01DX009 (ip), vehicle: saline) was 100 [9 of 10 alive], 115, 123, 124, 127, 138, 143 % of control, the survivor count (dose: 75.0 mg/kg/injection, schedule: Q01DX009 (ip), vehicle: other) was 10 of 10 and the T/C (dose: 75.0 mg/kg/injection, schedule: Q04DX003 (ip), vehicle: saline) was 126 % of control. The survivor count (dose: 100.0 mg/kg/injection, schedule: Q01DX009 (ip), vehicle: citric acid) was 10 of 10, the survivor count (dose: 100.0 mg/kg/injection, schedule: Q01DX009 (ip), vehicle: other) was 9 of 10 and 10 of 10 and the survivor count (dose: 100.0 mg/kg/injection, schedule: Q01DX009 (ip), vehicle: saline sonified) was 6 of 6. For the same molecule, the T/C [1] was 107, 115, 117, 129, 181 % of control, the survivor count [1] was 10 of 10 and 6 of 6 and the T/C (dose: 150.0 mg/kg/injection, schedule: Q04DX003 (ip), vehicle: saline) was 138 % of control [8 of 9 alive]. For the same molecule, the survivor count (dose: 200.0 mg/kg/injection, schedule: Q01DX009 (ip), vehicle: citric acid) was 6 of 10, the survivor count (dose: 200.0 mg/kg/injection, schedule: Q01DX009 (ip), vehicle: other) was 2 of 10 and 3 of 10 and the survivor count (dose: 200.0 mg/kg/injection, schedule: Q01DX009 (ip), vehicle: saline sonified) was 1 of 6. For the same molecule, the survivor count (dose: 200.0 mg/kg/injection, schedule: Q01DX009 (ip), vehicle: saline) was 4 of 10, 8 of 10, 9 of 10, 10 of 10 and the survivor count (dose: 400.0 mg/kg/injection, schedule: Q01DX009 (ip), vehicle: citric acid) was 0 of 10.

For `CC12C=CC(=O)C=C1CCC1C2C(O)CC2(C)C1CCC2(O)C(=O)COC(=O)CCCc1ccc(N(CCCl)CCCl)cc1` (stereo unspecified), the T/C (dose: 20.0 mg/kg/injection, schedule: Q01DX011 (ip), vehicle: saline) was 126 % of control.

In the case of `NC(CCCC(=O)O)P(=O)(O)O` (stereo unspecified), the survivor count [2] is reported as 8 of 10 and the survivor count [3] is reported as 5 of 10.

For `Cc1ccc(S(=O)(=O)OC2CCN(C)CC2)cc1`, the survivor count (dose: 12.0 mg/kg/injection, schedule: Q04DX003 (ip), vehicle: Klucel (hydroxypropylcellulose) (HPC)) was 10 of 10, the survivor count (dose: 25.0 mg/kg/injection, schedule: Q04DX003 (ip), vehicle: Klucel (hydroxypropylcellulose) (HPC)) was 10 of 10 and the survivor count (dose: 50.0 mg/kg/injection, schedule: Q04DX003 (ip), vehicle: Klucel (hydroxypropylcellulose) (HPC)) was 9 of 10. For the same molecule, the survivor count [4] was 2 of 10 and 9 of 10, the survivor count [5] was 0 of 10 and the survivor count [6] was 0 of 10.

`CC(C)=CCC(O)C1=CC(=O)c2c(O)ccc(O)c2C1=O` (stereo unspecified) was tested, and the survivor count (dose: 20.0 mg/kg/injection, schedule: Q01DX009 (ip), vehicle: Klucel (hydroxypropylcellulose) (HPC)) was 10 of 10.

With `Cc1ccc2c(C)c3c(ccc4ccccc43)c[n+]2c1` the survivor count (dose: 1.25 mg/kg/injection, schedule: Q01DX009 (ip), vehicle: saline with Tween-80) was 6 of 6, the survivor count (dose: 10.0 mg/kg/injection, schedule: Q01DX009 (ip), vehicle: saline with Tween-80) was 4 of 6 and the survivor count (dose: 20.0 mg/kg/injection, schedule: Q01DX009 (ip), vehicle: saline with Tween-80) was 0 of 6.

For `O=S1(=O)OCc2ccccc21`, the survivor count [7] was 9 of 10.

With `CCOc1ccc2nc(Cl)sc2c1` the survivor count [5] was 6 of 10 and the survivor count [6] was 0 of 10.

`O=C1c2ccccc2C(=O)N1CCC[P+](c1ccccc1)(c1ccccc1)c1ccccc1` was tested, and the survivor count (dose: 25.0 mg/kg/injection, schedule: Q01DX009 (ip), vehicle: Klucel (hydroxypropylcellulose) (HPC)) was 2 of 10.

For `Cc1cc(Cl)ccc1OCC(=O)Nc1nc(N)nc(N)n1`, the survivor count (dose: 100.0 mg/kg/injection, schedule: Q04DX003 (ip), vehicle: carboxymethylcellulose (CMC)) was 10 of 10, the survivor count (dose: 200.0 mg/kg/injection, schedule: Q04DX003 (ip), vehicle: carboxymethylcellulose (CMC)) was 10 of 10 and the survivor count (dose: 400.0 mg/kg/injection, schedule: Q04DX003 (ip), vehicle: carboxymethylcellulose (CMC)) was 9 of 10.

With `COc1cc(O)c2c(c1)C(=O)c1cc3c(c(O)c1C2=O)C(OC1OC(C)C(O)C(O)C1OC)C(OC)C(C)(O)C3=O` (stereo unspecified) the survivor count [2] was 7 of 10.

`CC1CCCCN1CCNc1ccc(CO)c2sc3ccccc3c(=O)c12` (stereo unspecified) was tested, and the survivor count [8] was 10 of 10.

With `Cc1ccc(S(=O)(=O)Nc2ccccc2-c2nc3c(Cl)ccc(Cl)c3c(=O)o2)cc1` the survivor count [3] was 7 of 10.

For `C[C@]12CCC(=O)C=C1CC[C@@H]1[C@@H]2C(=O)C[C@@]2(C)[C@H]1CC[C@]2(O)C(=O)CO`, the survivor count (dose: 320.0 mg/kg/injection, schedule: Q02DX009 (ip), vehicle: Klucel (hydroxypropylcellulose) (HPC)) was 10 of 10.

For `COc1ccc(/C=N/n2c3ccccc3c3ccccc32)cc1OCCN(C)C`, the survivor count [9] was 5 of 10, the survivor count [7] was 0 of 10 and the survivor count [2] was 0 of 10. For the same molecule, the survivor count [3] was 0 of 10.

`O=[N+]([O-])c1ccc([S][Pb]([c]2ccccc2)([c]2ccccc2)[c]2ccccc2)cc1` was tested, and the survivor count [4] was 10 of 10.

With `Cc1ccc(Cl)cc1NC(=O)Nc1ccccc1Cl` the survivor count [10] was 10 of 10, the survivor count [11] was 10 of 10 and the survivor count [12] was 10 of 10. For the same molecule, the survivor count [9] was 10 of 10, the survivor count [7] was 7 of 10 and 10 of 10 and the survivor count [2] was 6 of 10. For the same molecule, the survivor count [3] was 7 of 10.

`Cn1c(N)c(N=Nc2ccccc2Cl)c(=O)n(C)c1=O` was tested, and the survivor count (dose: 100.0 mg/kg/injection, schedule: Q01DX009 (ip), vehicle: saline with Tween-80) was 10 of 10 and the survivor count [8] was 10 of 10.

For `CCC(=O)Nc1ccc(F)cc1`, the survivor count [7] was 10 of 10, the survivor count [2] was 10 of 10 and the survivor count [3] was 10 of 10.

In the case of `O=P(NC12CC3CC(CC(C3)C1)C2)(N1CC1)N1CC1`, the survivor count (dose: 10.0 mg/kg/injection, schedule: Q01DX009 (ip), vehicle: Klucel (hydroxypropylcellulose) (HPC)) is reported as 10 of 10 and the survivor count (dose: 15.0 mg/kg/injection, schedule: Q01DX009 (ip), vehicle: Klucel (hydroxypropylcellulose) (HPC)) is reported as 9 of 10.

For `C[CH2][Pb]([Br])([CH2]C)[CH2]C`, the survivor count [13] was 10 of 10.

`COc1cc2c[n+](C)c3c(c2cc1OC)Cc1cc2c(cc1-3)OCO2` was tested, and the T/C [10] was 148 % of control, the T/C [11] was 131 % of control [9 of 10 alive on day 9] and the T/C [12] was 139 % of control. For the same molecule, the T/C [13] was 147 % of control.

In the case of `COc1cc2c(cc1OC)C13CCN4CC5=CCOC6CC(=O)N2C1C6C5CC43` (stereo unspecified) (tested in a mixture with another compound), the survivor count [7] is reported as 5 of 10.

In the case of `CC1([CH2][Hg][I])CS(=O)(=O)CC(C)([CH2][Hg][I])O1` (stereo unspecified), the survivor count (dose: 0.3 mg/kg/injection, schedule: Q01DX009 (ip), vehicle: saline sonified) is reported as 5 of 6 and the survivor count (dose: 0.6 mg/kg/injection, schedule: Q01DX009 (ip), vehicle: saline sonified) is reported as 6 of 6.
